The list is a part of this screen's results and no random one: it is rich in T/C values a quarter to a half above the control, in often repeated tests (any T/C) and in doses without a T/C. Other doses and runs of a compound stand elsewhere. T/C: endpoint of the treated group in % of that of the vehicle group. Some doses have a count of surviving animals in place of a T/C: the source files T/C as zero there, which appears to mark a toxic dose or a test without result, not a measured value. Some survivor counts are full or nearly so, which does not show that the dose was tolerated: the source hardly ever lists a survival T/C far under the control, and the zero likely stands for such cases as well. Counts of survivors are from the toxicity check (mostly the fifth day) where no day follows; animals may have died later. Schedule codes are those of the source, read here as Q, the interval in days (D) or hours (H), X, the number of doses. Some entries were tested several times; their values stand side by side, smallest first. Signs of the kind (2×) say how often a value occurs here. For survival time, the PubChem record calls one and a half times the control and up active, and a quarter to a half above the control has no call in these data; cut-offs in other NCI protocols can differ. Some T/C values carry the count of animals alive at the toxicity check (mostly the fifth day); where none is given, no animal had died by that day.
System: BDF1 mice, B16 melanoma ip, median survival T/C
Assay: NCI In Vivo Anticancer Drug Screen. Data for tumor model B16 Melanoma (intraperitoneal) in B6D2F1 (BDF1) mice
Details: T/C endpoint: median survival time, higher T/C = longer survival
Method in brief: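 In this screen, activity was judged from survival or tumor size in treated versus vehicle-treated tumor-bearing mice, reported as T/C.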

[1] = dose: 4.0 mg/kg/injection, schedule: Q01DX009 (ip), vehicle: saline
[2] = dose: 20.0 mg/kg/injection, schedule: Q01DX001 (ip), vehicle: saline
[3] = dose: 24.0 mg/kg/injection, schedule: Q01DX001 (ip), vehicle: water

COc1cccc2c1C(=O)c1c(O)c3c(c(O)c1C2=O)C[C@@](O)(C(=O)CO)C[C@@H]3OC1CC(N)C(O)C(C)O1 (stereo not given in full)
T/C (dose: 4.0 mg/kg/injection, schedule: Q01DX001 (ip), vehicle: saline, evaluated on day 8): 203 % of control
T/C (dose: 4.0 mg/kg/injection, schedule: Q01DX001 (ip), vehicle: saline, evaluated on day 10): 140 % of control
T/C (dose: 4.0 mg/kg/injection, schedule: Q01DX001 (ip), vehicle: water, evaluated on day 40): 132 % of control
T/C (dose: 4.0 mg/kg/injection, schedule: Q01DX001 (ip), vehicle: water, evaluated on day 45): 122, 126, 169 % of control [7 of 10 alive]
T/C (dose: 4.0 mg/kg/injection, schedule: Q01DX001 (ip), vehicle: water, evaluated on day 50): 160 % of control
T/C (dose: 4.0 mg/kg/injection, schedule: Q01DX001 (ip), vehicle: water, evaluated on day 60): 123, 142, 160, 161, 162, 180, 182, 192 [9 of 10 alive], 197, 203, 211, 227, 233, 248, 250 (2×), 252, 256, 260, 273, 280, 283, 284, 285, 287, 288 (2×), 289, 293, 300, 308, 314, 315, 319, 322, 325 % of control (2×)
T/C [1]: 87, 142, 288, 297 % of control
survivor count [1]: 9 of 10 and 10 of 10 (2×)
survivor count (dose: 4.0 mg/kg/injection, schedule: Q01DX009 (ip), vehicle: water): 10 of 10 and 8 of 8
T/C (dose: 4.0 mg/kg/injection, schedule: Q04DX003 (ip), vehicle: saline, evaluated on day 8): 185 % of control
T/C (dose: 4.0 mg/kg/injection, schedule: Q04DX003 (ip), vehicle: saline, evaluated on day 20): 118 % of control [2 of 4 alive]
T/C (dose: 4.0 mg/kg/injection, schedule: Q04DX003 (ip), vehicle: saline, evaluated on day 60): 152 [9 of 10 alive], 170, 183 [9 of 10 alive], 260 % of control (2×)
T/C (dose: 4.8 mg/kg/injection, schedule: Q01DX001 (ip), vehicle: saline): 145 and 147 % of control
T/C (dose: 4.8 mg/kg/injection, schedule: Q04DX003 (ip), vehicle: water, evaluated on day 60): 141 (2×), 197, 285 % of control
T/C (dose: 4.8 mg/kg/injection, schedule: Q04DX003 (ip), vehicle: water, evaluated on day 75): 191 and 365 % of control
T/C (dose: 5.0 mg/kg/injection, schedule: Q01DX001 (ip), vehicle: saline): 108, 132, 153, 287 % of control
T/C (dose: 6.0 mg/kg/injection, schedule: Q01DX001 (ip), vehicle: saline): 145 % of control
T/C (dose: 6.0 mg/kg/injection, schedule: Q01DX001 (ip), vehicle: water, evaluated on day 45): 234 % of control
T/C (dose: 6.0 mg/kg/injection, schedule: Q01DX001 (ip), vehicle: water, evaluated on day 60): 113, 222, 277, 287, 306 % of control
T/C (dose: 6.0 mg/kg/injection, schedule: Q01DX001 (ip), vehicle: water, evaluated on day 65): 144 and 334 % of control
T/C (dose: 6.0 mg/kg/injection, schedule: Q01DX001 (ip), vehicle: water, evaluated on day 75): 142 and 249 % of control
T/C (dose: 6.0 mg/kg/injection, schedule: Q04DX003 (ip), vehicle: saline): 147 % of control
T/C (dose: 7.5 mg/kg/injection, schedule: Q01DX001 (ip), vehicle: water, evaluated on day 50): 103 % of control
T/C (dose: 7.5 mg/kg/injection, schedule: Q01DX001 (ip), vehicle: water, evaluated on day 60): 141, 283, 308 % of control
T/C (dose: 8.0 mg/kg/injection, schedule: Q01DX001 (ip), vehicle: saline, evaluated on day 1): 300 % of control
T/C (dose: 8.0 mg/kg/injection, schedule: Q01DX001 (ip), vehicle: saline, evaluated on day 5): 139, 150, 271 % of control
T/C (dose: 8.0 mg/kg/injection, schedule: Q01DX001 (ip), vehicle: saline, evaluated on day 6): 300 % of control
T/C (dose: 8.0 mg/kg/injection, schedule: Q01DX001 (ip), vehicle: saline, evaluated on day 8): 190 % of control
T/C (dose: 8.0 mg/kg/injection, schedule: Q01DX001 (ip), vehicle: saline, evaluated on day 10): 153 % of control
T/C (dose: 8.0 mg/kg/injection, schedule: Q01DX001 (ip), vehicle: water, evaluated on day 40): 150 % of control
T/C (dose: 8.0 mg/kg/injection, schedule: Q01DX001 (ip), vehicle: water, evaluated on day 45): 138, 156 [9 of 10 alive], 176 % of control [8 of 10 alive]
T/C (dose: 8.0 mg/kg/injection, schedule: Q01DX001 (ip), vehicle: water, evaluated on day 50): 176 % of control
T/C (dose: 8.0 mg/kg/injection, schedule: Q01DX001 (ip), vehicle: water, evaluated on day 60): 144, 154, 156, 162, 165, 198, 201 [9 of 10 alive], 204, 209, 210, 225, 227, 242, 253, 258, 273, 281, 283 (2×), 285, 287, 288, 288 [9 of 10 alive], 289 (2×), 290, 293, 297, 300 (2×), 303, 304, 308, 309, 321 [9 of 10 alive], 325, 327 % of control
survivor count (dose: 8.0 mg/kg/injection, schedule: Q01DX009 (ip), vehicle: saline): 10 of 10
survivor count (dose: 8.0 mg/kg/injection, schedule: Q04DX003 (ip), vehicle: saline): 10 of 10
T/C (dose: 8.0 mg/kg/injection, schedule: Q04DX003 (ip), vehicle: water, evaluated on day 60): 86 and 91 % of control
T/C (dose: 8.0 mg/kg/injection, schedule: Q04DX003 (ip), vehicle: water, evaluated on day 75): 200 % of control
survivor count (dose: 8.0 mg/kg/injection, schedule: Q04DX003 (ip), vehicle: water): 10 of 10 (2×) and 7 of 7
T/C (dose: 10.0 mg/kg/injection, schedule: Q01DX001 (ip), vehicle: saline): 111, 180, 182, 287 % of control
T/C (dose: 10.0 mg/kg/injection, schedule: Q01DX001 (ip), vehicle: water, evaluated on day 60): 127 [7 of 8 alive] and 303 % of control
T/C (dose: 10.0 mg/kg/injection, schedule: Q01DX001 (ip), vehicle: water, evaluated on day 65): 184 and 269 % of control
T/C (dose: 10.0 mg/kg/injection, schedule: Q01DX001 (ip), vehicle: water, evaluated on day 75): 161 and 210 % of control
T/C (dose: 12.0 mg/kg/injection, schedule: Q01DX001 (ip), vehicle: saline, evaluated on day 5): 271 % of control
T/C (dose: 12.0 mg/kg/injection, schedule: Q01DX001 (ip), vehicle: saline, evaluated on day 8): 228 % of control
T/C (dose: 12.0 mg/kg/injection, schedule: Q01DX001 (ip), vehicle: saline, evaluated on day 10): 153 % of control
T/C (dose: 12.0 mg/kg/injection, schedule: Q01DX001 (ip), vehicle: saline, evaluated on day 99): 135 and 412 % of control
T/C (dose: 12.0 mg/kg/injection, schedule: Q01DX001 (ip), vehicle: water, evaluated on day 45): 234 % of control
T/C (dose: 12.0 mg/kg/injection, schedule: Q01DX001 (ip), vehicle: water, evaluated on day 60): 196, 277, 306 % of control
survivor count (dose: 13.0 mg/kg/injection, schedule: Q04DX003 (ip), vehicle: saline): 9 of 10
T/C (dose: 15.0 mg/kg/injection, schedule: Q01DX001 (ip), vehicle: water, evaluated on day 50): 149 % of control
T/C (dose: 15.0 mg/kg/injection, schedule: Q01DX001 (ip), vehicle: water, evaluated on day 60): 283 and 307 % of control
survivor count (dose: 15.0 mg/kg/injection, schedule: Q01DX001 (ip), vehicle: water): 9 of 10
T/C (dose: 16.0 mg/kg/injection, schedule: Q01DX001 (ip), vehicle: saline, evaluated on day 1): 42 % of control
T/C (dose: 16.0 mg/kg/injection, schedule: Q01DX001 (ip), vehicle: saline, evaluated on day 6): 42 % of control
T/C (dose: 16.0 mg/kg/injection, schedule: Q01DX001 (ip), vehicle: saline, evaluated on day 8): 193 % of control [6 of 8 alive]
T/C (dose: 16.0 mg/kg/injection, schedule: Q01DX001 (ip), vehicle: saline, evaluated on day 10): 106 % of control [8 of 9 alive]
T/C (dose: 16.0 mg/kg/injection, schedule: Q01DX001 (ip), vehicle: water, evaluated on day 40): 156 % of control
T/C (dose: 16.0 mg/kg/injection, schedule: Q01DX001 (ip), vehicle: water, evaluated on day 45): 136 % of control
T/C (dose: 16.0 mg/kg/injection, schedule: Q01DX001 (ip), vehicle: water, evaluated on day 50): 190 % of control
T/C (dose: 16.0 mg/kg/injection, schedule: Q01DX001 (ip), vehicle: water, evaluated on day 60): 92, 94, 95, 96 [9 of 10 alive], 108, 120 [9 of 10 alive], 135, 141, 156, 173 [9 of 10 alive], 180, 188, 235, 240, 242 [9 of 10 alive], 273 [9 of 10 alive], 285, 287, 294, 303, 304, 306, 307, 323 [9 of 10 alive], 327 % of control
survivor count (dose: 16.0 mg/kg/injection, schedule: Q01DX001 (ip), vehicle: water): 4 of 10, 6 of 10, 7 of 10, 8 of 10, 9 of 10, 10 of 10 (3×)
survivor count (dose: 16.0 mg/kg/injection, schedule: Q01DX009 (ip), vehicle: saline): 7 of 10
survivor count (dose: 16.0 mg/kg/injection, schedule: Q04DX003 (ip), vehicle: saline): 7 of 10 and 10 of 10
T/C (dose: 16.7 mg/kg/injection, schedule: Q01DX001 (ip), vehicle: water, evaluated on day 60): 102 % of control [7 of 8 alive]
T/C (dose: 16.7 mg/kg/injection, schedule: Q01DX001 (ip), vehicle: water, evaluated on day 65): 167 and 264 % of control
T/C (dose: 16.7 mg/kg/injection, schedule: Q01DX001 (ip), vehicle: water, evaluated on day 75): 107 [8 of 10 alive] and 142 % of control
survivor count (dose: 16.7 mg/kg/injection, schedule: Q01DX001 (ip), vehicle: water): 8 of 8
T/C [2]: 133, 201, 287 % of control
survivor count [2]: 9 of 10
T/C [3]: 129 [9 of 10 alive] and 306 % of control
survivor count [3]: 7 of 10 and 7 of 8
survivor count (dose: 30.0 mg/kg/injection, schedule: Q01DX001 (ip), vehicle: water): 3 of 10, 5 of 10, 8 of 10
survivor count (dose: 32.0 mg/kg/injection, schedule: Q01DX001 (ip), vehicle: water): 2 of 10
survivor count (dose: 40.0 mg/kg/injection, schedule: Q01DX001 (ip), vehicle: saline): 2 of 10, 5 of 10, 10 of 10
survivor count (dose: 64.0 mg/kg/injection, schedule: Q01DX001 (ip), vehicle: water): 0 of 10 and 1 of 10
survivor count (dose: 80.0 mg/kg/injection, schedule: Q01DX001 (ip), vehicle: saline): 0 of 10 and 10 of 10
T/C (dose: 864.0 micrograms/kg/injection, schedule: Q01DX004 (ip), vehicle: other): 130 % of control [9 of 10 alive]
T/C (dose: 1440.0 micrograms/kg/injection, schedule: Q01DX004 (ip), vehicle: other): 131 and 148 % of control
T/C (dose: 2400.0 micrograms/kg/injection, schedule: Q01DX004 (ip), vehicle: other): 126 and 147 % of control
survivor count (dose: 6670.0 micrograms/kg/injection, schedule: Q01DX004 (ip), vehicle: other): 10 of 10

— PubChem BioAssay AID192 (DTP/NCI, 2004)
